The target of the test is T1, synthetic peptide of the C-terminal tail of SSTR5, including the PDZ ligand motif (mouse).
T1 sequence (peptide): ANGLMQTSRI
Nature of the test: affinity purification with mass spectrometry; SSTR5 C-terminal peptide coupled to NHS-sepharose (3 mg/ml matrix, 50 µl); HEK293 cell lysate in RIPA buffer; GKAP C-terminal peptide as control; bands cut from SDS gel, tryptic digestion, mass spectroscopy; only the target purified.

Amino acid sequences for entries named in this document (tags omitted).
UniProt Q9NRD5: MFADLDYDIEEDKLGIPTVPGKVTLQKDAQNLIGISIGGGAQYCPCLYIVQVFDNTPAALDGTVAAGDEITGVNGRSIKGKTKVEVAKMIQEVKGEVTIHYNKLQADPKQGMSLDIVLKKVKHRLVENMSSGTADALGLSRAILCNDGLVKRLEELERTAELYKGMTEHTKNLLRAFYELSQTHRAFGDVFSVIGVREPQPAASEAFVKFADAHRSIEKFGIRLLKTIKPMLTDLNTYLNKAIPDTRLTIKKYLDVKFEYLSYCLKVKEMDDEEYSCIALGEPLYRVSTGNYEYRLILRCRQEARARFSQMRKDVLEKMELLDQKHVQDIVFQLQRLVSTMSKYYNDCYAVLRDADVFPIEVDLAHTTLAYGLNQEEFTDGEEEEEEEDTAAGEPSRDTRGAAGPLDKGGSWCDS

No constants are given. Whether binding was seen depends on the method and setting. Binding seen in cells or lysates may run through a third protein. Here binding means that the protein was enriched with, or labelled near, the bait; the list need not be complete. A no says only that the protein was not detected with the bait.

For the substance “protein interacting with C kinase 1 (PICK1), endogenous in HEK293 cells (from UniProt Q9NRD5 1-415)”, the binding result is “no binding”.

(Values after paper PMC3921201.)
